# Test results reported in the supplement of paper PMC8728848.
# The other results are listed elsewhere or left out.
# Key:
# Assay in all cases: glycan array binding signal (z-score within array); higher = stronger binding
# Details in all cases: glycan notation: IUPAC condensed, linker removed
# [1] = biological target: Fuc(a1-2)[GalNAc(b1-3)]Gal
# How it was run: (§1)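 The binding signal is a Z-score computed within each array and averaged over linkers. Arrays of the same protein sequence at different concentrations or buffers were also averaged together. Data originate from 3228 arrays in the Consortium for Functional Glycomics database, kept only where the protein sequence was available.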
# Fuc(a1-3)GlcNAc = biological target: Fuc(a1-3)GlcNAc
# How it was run: as §1
# [2] = biological target: Fuc(a1-3)[Gal(b1-4)]Glc6S
# How it was run: as §1
# [3] = biological target: Fuc(a1-3)[Gal(b1-4)]GlcNAc
# How it was run: as §1
# [4] = biological target: Fuc(a1-3)[Gal(b1-4)]GlcNAc(b1-2)Man
# How it was run: as §1
# [5] = biological target: Fuc(a1-3)[Gal(b1-4)]GlcNAc(b1-2)Man(a1-3)[Fuc(a1-3)[Gal(b1-4)]GlcNAc(b1-2)Man(a1-6)]Man(b1-4)GlcNAc(b1-4)GlcNAc
# How it was run: as §1
# [6] = biological target: Fuc(a1-3)[Gal(b1-4)]GlcNAc(b1-2)Man(a1-3)[Fuc(a1-3)[Gal(b1-4)]GlcNAc(b1-2)Man(a1-6)]Man(b1-4)GlcNAc(b1-4)[Fuc(a1-6)]GlcNAc
# How it was run: as §1
# [7] = biological target: Fuc(a1-3)[Gal(b1-4)]GlcNAc(b1-3)Gal(b1-3)[Fuc(a1-4)]GlcNAc
# How it was run: as §1
# [8] = biological target: Fuc(a1-3)[Gal(b1-4)]GlcNAc(b1-3)Gal(b1-4)[Fuc(a1-3)]GlcNAc
# How it was run: as §1
# [9] = biological target: Fuc(a1-3)[Gal(b1-4)]GlcNAc(b1-3)Gal(b1-4)[Fuc(a1-3)]GlcNAc(b1-3)Gal(b1-4)[Fuc(a1-3)]GlcNAc
# How it was run: as §1
# [10] = biological target: Fuc(a1-3)[Gal(b1-4)]GlcNAc(b1-3)GalNAc
# How it was run: as §1
# [11] = biological target: Fuc(a1-3)[Gal(b1-4)]GlcNAc(b1-6)GalNAc
# How it was run: as §1
# [12] = biological target: Fuc(a1-3)[Gal(b1-4)]GlcNAc(b1-6)[Gal(b1-3)GlcNAc(b1-3)]Gal(b1-4)Glc
# How it was run: as §1
# [13] = biological target: Fuc(a1-3)[Gal(b1-4)]GlcNAc6S
# How it was run: as §1
# [14] = biological target: Fuc(a1-3)[Gal3S(b1-4)]Glc
# How it was run: as §1
# [15] = biological target: Fuc(a1-3)[Gal3S(b1-4)]GlcNAc
# How it was run: as §1
# [16] = biological target: Fuc(a1-3)[Gal3S(b1-4)]GlcNAc6S
# How it was run: as §1
# [17] = biological target: Fuc(a1-3)[GalNAc(b1-4)]GlcNAc
# How it was run: as §1
# [18] = biological target: Fuc(a1-3)[GalNAc(b1-4)]GlcNAc6S
# How it was run: as §1
# Fuc(a1-4)GlcNAc = biological target: Fuc(a1-4)GlcNAc
# How it was run: as §1
# Fuc(b1-3)GlcNAc = biological target: Fuc(b1-3)GlcNAc
# How it was run: as §1
# Gal(a1-2)Gal = biological target: Gal(a1-2)Gal
# How it was run: as §1
# Gal(a1-3)Gal = biological target: Gal(a1-3)Gal
# How it was run: as §1
# Gal(a1-3)Gal(b1-3)GlcNAc = biological target: Gal(a1-3)Gal(b1-3)GlcNAc
# How it was run: as §1
# [19] = biological target: Gal(a1-3)Gal(b1-3)GlcNAc(b1-2)Man
# How it was run: as §1
# [20] = biological target: Gal(a1-3)Gal(b1-3)GlcNAc(b1-2)Man(a1-3)[Gal(a1-3)Gal(b1-3)GlcNAc(b1-2)Man(a1-6)]Man(b1-4)GlcNAc(b1-4)GlcNAc
# How it was run: as §1
# [21] = biological target: Gal(a1-3)Gal(b1-3)GlcNAc(b1-3)GalNAc
# How it was run: as §1
# [22] = biological target: Gal(a1-3)Gal(b1-3)GlcNAc(b1-6)GalNAc
# How it was run: as §1
# [23] = biological target: Gal(a1-3)Gal(b1-3)[Fuc(a1-4)]GlcNAc(b1-2)Man(a1-3)[Gal(a1-3)Gal(b1-3)[Fuc(a1-4)]GlcNAc(b1-2)Man(a1-6)]Man(b1-4)GlcNAc(b1-4)GlcNAc
# How it was run: as §1
# Gal(a1-3)Gal(b1-4)Glc = biological target: Gal(a1-3)Gal(b1-4)Glc
# How it was run: as §1
# Gal(a1-3)Gal(b1-4)GlcNAc = biological target: Gal(a1-3)Gal(b1-4)GlcNAc
# How it was run: as §1
# [24] = biological target: Gal(a1-3)Gal(b1-4)GlcNAc(b1-2)Man
# How it was run: as §1
# [25] = biological target: Gal(a1-3)Gal(b1-4)GlcNAc(b1-2)Man(a1-3)[Gal(a1-3)Gal(b1-4)GlcNAc(b1-2)Man(a1-6)]Man(b1-4)GlcNAc(b1-4)GlcNAc
# How it was run: as §1
# [26] = biological target: Gal(a1-3)Gal(b1-4)GlcNAc(b1-3)GalNAc
# How it was run: as §1
# [27] = biological target: Gal(a1-3)Gal(b1-4)GlcNAc(b1-6)GalNAc
# How it was run: as §1
# [28] = biological target: Gal(a1-3)Gal(b1-4)[Fuc(a1-3)]GlcNAc
# How it was run: as §1
# [29] = biological target: Gal(a1-3)Gal(b1-4)[Fuc(a1-3)]GlcNAc(b1-2)Man(a1-3)[Gal(a1-3)Gal(b1-4)[Fuc(a1-3)]GlcNAc(b1-2)Man(a1-6)]Man(b1-4)GlcNAc(b1-4)GlcNAc
# How it was run: as §1
# Gal(a1-3)GalNAc = biological target: Gal(a1-3)GalNAc
# How it was run: as §1
# [30] = biological target: Gal(a1-3)[Gal(a1-4)]Gal(b1-4)GlcNAc
# How it was run: as §1
# [31] = biological target: Gal(a1-4)Gal(b1-3)GlcNAc(b1-2)Man(a1-3)[Gal(a1-4)Gal(b1-3)GlcNAc(b1-2)Man(a1-6)]Man(b1-4)GlcNAc(b1-4)GlcNAc
# How it was run: as §1
# Gal(a1-4)Gal(b1-4)Glc = biological target: Gal(a1-4)Gal(b1-4)Glc
# How it was run: as §1
# Gal(a1-4)Gal(b1-4)GlcNAc = biological target: Gal(a1-4)Gal(b1-4)GlcNAc
# How it was run: as §1
# [32] = biological target: Gal(a1-4)Gal(b1-4)GlcNAc(b1-2)Man(a1-3)[Gal(a1-4)Gal(b1-4)GlcNAc(b1-2)Man(a1-6)]Man(b1-4)GlcNAc(b1-4)GlcNAc
# How it was run: as §1
# [33] = biological target: Gal(a1-4)Gal(b1-4)GlcNAc(b1-3)Gal(b1-4)Glc
# How it was run: as §1
# Gal(a1-4)GlcNAc = biological target: Gal(a1-4)GlcNAc
# How it was run: as §1
binder,measurement,setting,value
"XTP3-B-MRH1 (Homo sapiens), Q96DZ1 (protein) LLEPLFKQSSCSYRIESYWTYEVCHGKHIRQYHEEKETGQKINIHEYYLGNMLAKNLLFEKEREAEEKEKSNEIPTKNIEGQMTPYYPVGMGNGTPCSLKQNRPRSSTVMYICHPESKHEILSVAEVTTCEYEVVILTPLLCSHPKYRFRA",glycan array binding signal (z-score),[1],-1.01
same,glycan array binding signal (z-score),Fuc(a1-3)GlcNAc,-0.339
same,glycan array binding signal (z-score),[2],-0.886
same,glycan array binding signal (z-score),[3],0.765
same,glycan array binding signal (z-score),[4],-1.12
same,glycan array binding signal (z-score),[5],-1.59
same,glycan array binding signal (z-score),[6],-1.27
same,glycan array binding signal (z-score),[7],-0.511
same,glycan array binding signal (z-score),[8],4.25
same,glycan array binding signal (z-score),[9],0.112
same,glycan array binding signal (z-score),[10],-0.791
same,glycan array binding signal (z-score),[11],-0.152
same,glycan array binding signal (z-score),[12],-0.583
same,glycan array binding signal (z-score),[13],-0.311
same,glycan array binding signal (z-score),[14],1.58
same,glycan array binding signal (z-score),[15],-1.1
same,glycan array binding signal (z-score),[16],-0.786
same,glycan array binding signal (z-score),[17],-0.597
same,glycan array binding signal (z-score),[18],-0.658
same,glycan array binding signal (z-score),Fuc(a1-4)GlcNAc,-0.165
same,glycan array binding signal (z-score),Fuc(b1-3)GlcNAc,0.382
same,glycan array binding signal (z-score),Gal(a1-2)Gal,-0.427
same,glycan array binding signal (z-score),Gal(a1-3)Gal,-0.197
same,glycan array binding signal (z-score),Gal(a1-3)Gal(b1-3)GlcNAc,-0.328
same,glycan array binding signal (z-score),[19],-0.296
same,glycan array binding signal (z-score),[20],1.12
same,glycan array binding signal (z-score),[21],-0.13
same,glycan array binding signal (z-score),[22],-0.349
same,glycan array binding signal (z-score),[23],-0.237
same,glycan array binding signal (z-score),Gal(a1-3)Gal(b1-4)Glc,-0.843
same,glycan array binding signal (z-score),Gal(a1-3)Gal(b1-4)GlcNAc,0.128
same,glycan array binding signal (z-score),[24],-0.95
same,glycan array binding signal (z-score),[25],-0.041
same,glycan array binding signal (z-score),[26],0.873
same,glycan array binding signal (z-score),[27],1.2
same,glycan array binding signal (z-score),[28],0.562
same,glycan array binding signal (z-score),[29],2.03
same,glycan array binding signal (z-score),Gal(a1-3)GalNAc,0.362
same,glycan array binding signal (z-score),[30],-0.853
same,glycan array binding signal (z-score),[31],-0.616
same,glycan array binding signal (z-score),Gal(a1-4)Gal(b1-4)Glc,2.03
same,glycan array binding signal (z-score),Gal(a1-4)Gal(b1-4)GlcNAc,0.465
same,glycan array binding signal (z-score),[32],-0.449
same,glycan array binding signal (z-score),[33],-0.086
same,glycan array binding signal (z-score),Gal(a1-4)GlcNAc,-0.058

# Reprinted from the listing for reference:
binder,measurement,setting,value
"XTP3-B-MRH1 (Homo sapiens), Q96DZ1 (protein) LLEPLFKQSSCSYRIESYWTYEVCHGKHIRQYHEEKETGQKINIHEYYLGNMLAKNLLFEKEREAEEKEKSNEIPTKNIEGQMTPYYPVGMGNGTPCSLKQNRPRSSTVMYICHPESKHEILSVAEVTTCEYEVVILTPLLCSHPKYRFRA",glycan array binding signal (z-score),[5],-1.59
same,glycan array binding signal (z-score),[6],-1.27
